Measured values: paper PMC4680877
Changes are numbered by the printed parent chain. These are yes or no findings as the source states them, for the method shown. For some assays here: Binding calls can cover weak binding; strength is not graded here. For some assays here: Where a sequence is shown, tags or fusion partners need not be part of it.

What was measured:
[1] = biological target: T1, LexA-CC (coiled-coil domain of TRPM7, residues 1120-1288, fused to LexA) (not stated (human or mouse cDNA cloned)) (UniProt Q923J1); experiment: two-hybrid; directed Y2H beta galactosidase assay; TRPM7 COOH-terminal fragments fused to LexA as bait, Gal4-fused hepatocystin 346-528 as prey
T1 sequence: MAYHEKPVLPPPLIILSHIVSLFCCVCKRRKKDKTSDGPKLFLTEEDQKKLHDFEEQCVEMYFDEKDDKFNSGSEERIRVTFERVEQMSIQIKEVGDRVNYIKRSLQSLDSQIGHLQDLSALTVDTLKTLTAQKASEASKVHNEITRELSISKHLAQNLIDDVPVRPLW

[2] = biological target: T2, LexA-CTERM (COOH-terminus of TRPM7, residues 1120-1862, fused to LexA) (not stated (human or mouse cDNA cloned)) (UniProt Q923J1); experiment: as above
T2 sequence: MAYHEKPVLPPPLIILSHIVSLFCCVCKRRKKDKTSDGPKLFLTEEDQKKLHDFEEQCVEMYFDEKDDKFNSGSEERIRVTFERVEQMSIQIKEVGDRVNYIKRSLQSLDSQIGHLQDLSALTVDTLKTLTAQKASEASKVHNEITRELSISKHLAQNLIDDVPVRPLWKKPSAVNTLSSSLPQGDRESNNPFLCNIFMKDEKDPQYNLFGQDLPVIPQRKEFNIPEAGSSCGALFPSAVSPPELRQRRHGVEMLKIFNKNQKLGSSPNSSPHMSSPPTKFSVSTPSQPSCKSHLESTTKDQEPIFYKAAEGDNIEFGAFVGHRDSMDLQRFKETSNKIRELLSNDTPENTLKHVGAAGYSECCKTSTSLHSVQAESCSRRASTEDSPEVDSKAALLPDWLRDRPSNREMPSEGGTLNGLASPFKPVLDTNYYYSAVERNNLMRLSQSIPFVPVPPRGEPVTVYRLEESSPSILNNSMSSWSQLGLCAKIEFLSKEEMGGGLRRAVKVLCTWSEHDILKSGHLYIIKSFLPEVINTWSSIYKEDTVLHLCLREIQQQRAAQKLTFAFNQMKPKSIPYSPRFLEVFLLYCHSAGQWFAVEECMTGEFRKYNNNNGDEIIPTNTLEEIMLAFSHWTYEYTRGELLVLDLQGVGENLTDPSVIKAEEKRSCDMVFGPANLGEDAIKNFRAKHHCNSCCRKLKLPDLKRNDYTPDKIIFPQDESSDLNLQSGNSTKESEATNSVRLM

[3] = biological target: T3, LexA-CTERM (K1646R), kinase-inactive mutant of the TRPM7 COOH-terminus (not stated (human or mouse cDNA cloned)) (UniProt Q923J1); experiment: as above
T3 sequence: T2 sequence with K527R

[4] = biological target: T4, LexA-KIN (kinase domain of TRPM7, residues 1597-1862, fused to LexA) (not stated (human or mouse cDNA cloned)) (UniProt Q923J1); experiment: as above
T4 sequence: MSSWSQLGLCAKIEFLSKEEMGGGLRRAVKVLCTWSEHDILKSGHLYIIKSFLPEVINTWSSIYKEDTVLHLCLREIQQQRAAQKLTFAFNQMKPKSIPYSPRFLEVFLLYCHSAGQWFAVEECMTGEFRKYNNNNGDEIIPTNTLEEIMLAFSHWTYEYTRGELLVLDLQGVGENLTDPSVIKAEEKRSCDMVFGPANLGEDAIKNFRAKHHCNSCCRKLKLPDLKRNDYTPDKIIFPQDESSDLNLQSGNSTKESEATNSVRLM

[5] = biological target: T2, LexA-CTERM (COOH-terminus of TRPM7, residues 1120-1862, fused to LexA) (not stated (human or mouse cDNA cloned)); experiment: two-hybrid; screen of a rat brain prey library (pACT2 AD) with LexA-CTERM as bait; growth on selective media and beta galactosidase assay, then sequencing

- binding [1]: no binding
- binding [2]: binds
- binding [3]: binds
- binding [4]: no binding
- binding [5]: binds
Substance: Gal4 fused residues 346-528 of hepatocystin (prey) (rat (clone from a rat brain library)) (domain or fragment)
